Data: patent US9789213B2 (LONDON HEALTH SCIENCES CENTRE RESEARCH INC., priority 2012, dated 2017)

test: general procedure: Fmoc solid-phase peptide synthesis; Rink-Amide-MBNA; HCTU/DIPEA; settings: whole synthesis

Row | Substance | final purity (method not given) [%] | isolated yield [%]
1 | H-HMYFLLGH(Ahx)(LysN3)-NH2 | >99 | –
2 | H-HMYFLLGH-NH2 | >99 | –
3 | H-H[Nle]YFLLGH-NH2 | >99 | –
4 | H-h(Nle)YFLLGH-NH2 | >99 | –
5 | H-hMYFLLGH-NH2 | >99 | –
6 | H-CKLQLVLAPLHSLAS-NH2 | >90 | –
7 | H-h(DabN3)YFLLGH-NH2 | >99 | –
8 | HMYFLLGH | – | 9.8
9 | H-H(DabN3)YFLLGH-NH2 | >99 | –
10 | H-HMYFLLGH(Ahx)(LysDOTA)-NH2 | >95 | –
11 | GSLLVHSFQQLG | – | 9.7
12 | Ac-KLQLVLAPLHSLAS-NH2 | >98 | –

Where a sequence shows no end group, the ends are not given. [ ]: non-standard residue; d: D form. Nle = CCCC[C@H](N)C(=O)O
